## Primary screen of a compound library

The chains behind the UniProt entries cited, without tags or fusion partners. Residues count along the entry.
UniProt Q4DA54, 1-478: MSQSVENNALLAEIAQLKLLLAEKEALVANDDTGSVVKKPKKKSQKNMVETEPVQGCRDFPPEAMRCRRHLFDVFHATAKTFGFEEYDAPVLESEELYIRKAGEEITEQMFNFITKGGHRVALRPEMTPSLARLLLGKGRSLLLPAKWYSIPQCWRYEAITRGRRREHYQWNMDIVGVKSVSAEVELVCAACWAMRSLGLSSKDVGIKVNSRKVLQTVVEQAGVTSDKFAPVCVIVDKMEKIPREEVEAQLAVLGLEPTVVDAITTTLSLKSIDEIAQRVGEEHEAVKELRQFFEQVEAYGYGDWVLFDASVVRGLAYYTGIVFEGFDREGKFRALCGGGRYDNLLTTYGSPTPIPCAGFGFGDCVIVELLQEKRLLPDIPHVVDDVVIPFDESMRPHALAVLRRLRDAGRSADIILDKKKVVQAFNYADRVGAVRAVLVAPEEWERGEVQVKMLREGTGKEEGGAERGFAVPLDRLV
UniProt A4I591, 1-473: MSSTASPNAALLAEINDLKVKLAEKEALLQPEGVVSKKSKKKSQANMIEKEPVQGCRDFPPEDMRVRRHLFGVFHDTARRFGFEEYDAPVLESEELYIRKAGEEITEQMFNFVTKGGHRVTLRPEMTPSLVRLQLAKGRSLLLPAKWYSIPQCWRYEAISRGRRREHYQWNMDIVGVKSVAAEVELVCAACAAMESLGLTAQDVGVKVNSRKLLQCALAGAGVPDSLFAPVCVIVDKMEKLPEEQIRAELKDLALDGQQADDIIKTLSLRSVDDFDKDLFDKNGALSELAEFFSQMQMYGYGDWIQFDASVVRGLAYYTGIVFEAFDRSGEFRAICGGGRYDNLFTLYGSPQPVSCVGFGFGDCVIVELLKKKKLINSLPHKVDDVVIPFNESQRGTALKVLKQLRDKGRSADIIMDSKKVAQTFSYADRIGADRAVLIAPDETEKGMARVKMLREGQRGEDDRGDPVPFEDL
UniProt P9WPC5, whole entry: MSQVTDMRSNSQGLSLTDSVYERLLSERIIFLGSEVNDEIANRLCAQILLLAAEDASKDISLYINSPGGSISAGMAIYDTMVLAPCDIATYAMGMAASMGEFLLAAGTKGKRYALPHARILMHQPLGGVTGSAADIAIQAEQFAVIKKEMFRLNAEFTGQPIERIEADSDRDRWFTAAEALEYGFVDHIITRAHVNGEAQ
UniProt P9WPC3, whole entry partner: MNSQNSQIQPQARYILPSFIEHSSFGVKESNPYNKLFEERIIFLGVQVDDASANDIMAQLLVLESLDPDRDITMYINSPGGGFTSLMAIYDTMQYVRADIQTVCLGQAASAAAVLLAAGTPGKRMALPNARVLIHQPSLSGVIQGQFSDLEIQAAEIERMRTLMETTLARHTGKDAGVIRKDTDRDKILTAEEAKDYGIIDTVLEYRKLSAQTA

Toxoplasma: 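Assay of Toxoplasma gondii numbers, read through their beta-galactosidase reporter with a colour substrate. Compounds at 10 µM. The record gives no direction; the compounds picked for IC50 retests had high values, so higher reads as fewer parasites. Of about 67,000 compounds tested this way, about 260 (0.38%) reached 50% or more in at least one test.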
Leishmania in macrophages: 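Cell assay of Leishmania donovani living inside macrophages; the read-out is not stated. Concentration: 30 µM. Direction is inferred from retests: higher values go with stronger inhibition. Size under these conditions: about 69,000 compounds, about 1,000 of them at 50% or above in at least one test.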
TcHisRS: 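Enzyme assay of histidyl-tRNA synthetase; the read-out is not stated. Target: Histidine-tRNA ligase, Trypanosoma cruzi CL Brener (UniProt Q4DA54). Concentration: 30 µM. Higher reads as stronger inhibition (inferred: compounds with an IC50 in retests scored well above the rest). Of about 69,000 compounds tested this way, about 31 (0.045%) reached 50% or more in at least one test.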
LiHisRS: 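Histidine-tRNA ligase, Leishmania infantum (UniProt A4I591). Enzyme assay of histidyl-tRNA synthetase; the read-out is not stated. Tested at 30 µM. The record gives no direction; compounds that gave an IC50 in retests scored well above the rest, so higher reads as stronger inhibition. The assay is labelled LdHisRS but filed under L. infantum. Of about 69,000 compounds tested this way, about 410 (0.6%) reached 50% or more in at least one test.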
ClpP1P2: 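Protease assay of ClpP1P2, read by the AMC dye that it sets free. Target: ClpP1P2, Mycobacterium tuberculosis (UniProt P9WPC5 and UniProt P9WPC3). Concentration: 50 µM. Higher reads as stronger inhibition, judged from the few compounds that gave an IC50. Most other retested compounds had strongly negative values. About 69,000 compounds were tested under these conditions; 0.015% (about 10) showed 50% or more at least once.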
T. brucei: 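Whole-parasite assay of Trypanosoma brucei over 72 hours; the read-out is not stated. Concentration: 30 µM. The record gives no direction; compounds that gave an IC50 in retests scored well above the rest, so higher reads as stronger inhibition. Values scatter widely below zero; nearly all retest evidence comes from the higher of the two concentrations used. About 64,000 compounds were tested under these conditions; 1.5% (about 940) showed 50% or more at least once.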

Results are given as percent effect.
How 0% and 100% were set is not recorded. Most values in the screen are low, and negative values occur.
The compounds are a random part of those screened.
A dash means the value is not listed here; it may have been measured.

compound	Toxoplasma	Leishmania in macrophages	TcHisRS	LiHisRS	ClpP1P2	T. brucei
O=C(CCS(=O)(=O)C1CCCC1)NCc1ccccc1Cn1cncn1	-9.068	7.542	7.514	13.16	-24.13	5.842
O=C(O)C(F)(F)F.[H][C@@]12CCCO[C@]1([H])[C@H](NC(=O)c1cnccn1)CN(CCOC)C2	2.137	-19.13	-	-	-	47.08
CN(C)C(=O)CN1C[C@@H]2CC[C@H](C1)N(Cc1cccc(Cl)c1Cl)C2	-	-	6.612	30.48	0.6784	-
CCC(c1ccccc1)N1CCN(C(=O)c2cc(C(N)=O)c[nH]2)CC1 (stereo not drawn)	18.18	16.7	9.091	25.71	3.476	-24.58
O=C(NCCc1ccncc1)c1cccc(S(=O)(=O)NC2CC2)c1	-6.547	17.99	6.878	14.67	1.859	6.021
Cn1nccc1C(=O)N1CCOC(Cc2cccnc2)C1 (stereo not drawn)	-3.827	-16.07	-2.732	5.109	-0.8641	6.648
COc1ccc2nc(C3CC3)cc(C(=O)NCc3noc(C)n3)c2c1	-2.913	-13.64	3.185	23.94	-17.18	-32.52
O=C(O)C(F)(F)F.O=C(O)C(F)(F)F.[H][C@@]12CC(COc3ccccn3)C[C@@]1([H])N(Cc1ccoc1)CCO2 (stereo partly drawn)	11.2	7.137	-	-	-	-27.61
Cl.Cl.O=c1[nH]c2ncccc2n1C1CCNCC1	8.381	13.74	-	-	-	-
Cc1csc2ncc(-c3ccnc(N4CCN(C)CC4)n3)c(=O)n12	3.431	-9.486	3.396	-1.351	-69.37	-27.89
CCn1cnnc1C1CCN(C(=O)c2cnn(C(C)(C)C)c2)CC1	5.456	-12.58	7.538	15.73	-0.8222	8.525
CCn1cc(NC(=O)C2CCN(Cc3nc(C(C)C)no3)CC2)cn1	-15.91	13.54	-0.2865	10.53	7.988	9.338
O=C1CSC(c2ccc3c(c2)OCO3)c2cn[nH]c2N1 (stereo not drawn)	-4.776	20.45	1.775	1.379	-13.05	-
CC(C)(C)C(=O)N1C[C@H](c2ccsc2)[C@H]2CN(C3CCCC3)CC[C@H]21	-	-	-4.135	8.511	-10.5	-
Cc1cc(C)n(CC2CN(CC(=O)NC3CCOCC3)CCO2)n1 (stereo not drawn)	-6.473	-25.52	5.747	15.65	0.1988	-22.12
Cl.Cl.Cn1cnc2c(-c3cccnc3)nc(C3CCNCC3)cc21	6.444	7.84	-	-	-	-66.22
O=S(=O)(NCCN1CC=CC1)c1cncc(Cl)c1	4.224	12.75	6.579	19.17	1.616	-45.25
CC(C)CCc1n[nH]c(C(=O)O)c1Br	9.065	1.329	11.34	18.68	-3.986	2.829
CC(C)N1c2sc(-c3ccccc3)nc2CC1C(=O)NCCCO (stereo not drawn)	-0.8966	22.98	2.299	44	-3.046	-26.68
Cc1ncc2c(c1CNC(=O)C1(c3ccc(F)cc3)CC1)CCNC2	4.645	8.933	1.685	20.51	9.641	6.356
Cc1n[nH]c2c1C(c1cc(F)cc(F)c1)SCC(=O)N2 (stereo not drawn)	3.639	27.89	2.97	18.48	-5.537	-2.936
CC(=O)NCCNC(=O)CN1CCCC1Cn1nc(C)nc1C (stereo not drawn)	-10.37	3.891	-9.756	20.48	-7.661	-15.76
Cc1cccc(=O)n1CCCNc1ncnc2c1CCNCC2	3.231	9.317	4.762	11.76	-7.119	3.73
N#CCCN(CC1CCCO1)C(=O)c1ccc(C#N)cc1 (stereo not drawn)	-2.339	3.463	4.545	5.941	-8.185	13.97
O=C(O)C(F)(F)F.c1csc(CN2CCc3nnc(COc4cncnc4)n3CC2)c1	5.648	17.75	-	-	-	-22.66
CCNc1c(C#N)c(=O)n(C)c(=O)n1C	-16.12	22.41	1.053	21.92	-7.764	-2.203
COc1c(C(=O)NCc2cnn(C)c2C)nnn1Cc1ccccc1	65.52	-12.87	3.478	0	-7.899	-24.42
COCCNC(=O)c1ccoc1CN1c2ccccc2CC1C (stereo not drawn)	10.13	-2.376	0	8.065	-14.94	-29.27
CC(C)C(C)NC(=O)c1ncn2c1CN(C)S(=O)(=O)c1ccccc1-2.O=C(O)C(F)(F)F (stereo not drawn)	-30.09	-2.307	-	-	-	-6.241

Repeated from the top, 3 entries:

{"compound": "O=C(CCS(=O)(=O)C1CCCC1)NCc1ccccc1Cn1cncn1", "Toxoplasma": -9.068, "Leishmania in macrophages": 7.542, "TcHisRS": 7.514, "LiHisRS": 13.16, "ClpP1P2": -24.13, "T. brucei": 5.842}
{"compound": "O=C(O)C(F)(F)F.[H][C@@]12CCCO[C@]1([H])[C@H](NC(=O)c1cnccn1)CN(CCOC)C2", "Toxoplasma": 2.137, "Leishmania in macrophages": -19.13, "T. brucei": 47.08}
{"compound": "CN(C)C(=O)CN1C[C@@H]2CC[C@H](C1)N(Cc1cccc(Cl)c1Cl)C2", "TcHisRS": 6.612, "LiHisRS": 30.48, "ClpP1P2": 0.6784}

Data taken from ChEMBL document CHEMBL3988442, “University of Dundee, Small-Polar-MMV Screening Library” (2021).